The values that follow come from patent publication US20260273084A1 (ADC THERAPEUTICS SA, priority 2023, published 2026).

The series can be described thus: general procedure: peptide synthesis; CTC-resin ([…]); HATU/HOBT/DIEA (SPPS); T3P/DIEA (solution). The settings on record: conjugation step.

“(S)-2-(18-(2,5-dioxo-2,5-dihydro-1H-pyrrol-1-yl)-4,7,10,13,16-pentaoxo-3,6,9,12,15-pentaazaoctadecanamido)-N—((S)-1-(((1S,9S)-9-ethyl-5-fluoro-9-hydroxy-4-methyl-10,13-dioxo-2,3,9,10,13,15-hexahydro-1H,12H-benzo[de]pyrano[3′,4′:6,7]indolizino[1,2-b]quinolin-1-yl)amino)-1-oxopropan-2-yl)-3-methylbutanamide” came in with a conjugation yield of 22%.
